# Results reported in the supplement of paper PMC10849652.
# Chains of the proteins cited; added tags and fusions are not shown. Lines headed by an entry give the natural chain unless they say otherwise; changes in a name come on top.
# UniProt P49674: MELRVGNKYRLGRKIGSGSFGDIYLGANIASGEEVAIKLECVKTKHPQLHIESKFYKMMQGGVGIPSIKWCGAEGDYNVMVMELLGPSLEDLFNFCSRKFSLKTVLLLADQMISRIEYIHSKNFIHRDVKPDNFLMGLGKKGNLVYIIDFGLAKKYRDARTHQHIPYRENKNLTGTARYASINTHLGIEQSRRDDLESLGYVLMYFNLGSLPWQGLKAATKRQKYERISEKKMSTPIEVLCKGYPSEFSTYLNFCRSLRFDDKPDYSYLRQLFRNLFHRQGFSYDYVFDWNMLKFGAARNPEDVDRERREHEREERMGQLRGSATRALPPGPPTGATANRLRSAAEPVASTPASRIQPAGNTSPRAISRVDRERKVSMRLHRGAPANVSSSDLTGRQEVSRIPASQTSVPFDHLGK
# UniProt P09668: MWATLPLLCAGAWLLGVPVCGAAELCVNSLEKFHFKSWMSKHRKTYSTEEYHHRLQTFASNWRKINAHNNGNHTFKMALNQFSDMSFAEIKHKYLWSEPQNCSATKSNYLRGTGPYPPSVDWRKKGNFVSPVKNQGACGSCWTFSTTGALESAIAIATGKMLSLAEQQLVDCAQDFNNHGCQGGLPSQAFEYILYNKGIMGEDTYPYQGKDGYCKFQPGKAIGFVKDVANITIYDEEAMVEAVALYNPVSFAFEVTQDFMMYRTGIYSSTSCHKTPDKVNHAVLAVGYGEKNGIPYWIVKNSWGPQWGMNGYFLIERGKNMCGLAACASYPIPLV
# UniProt Q9UBR2: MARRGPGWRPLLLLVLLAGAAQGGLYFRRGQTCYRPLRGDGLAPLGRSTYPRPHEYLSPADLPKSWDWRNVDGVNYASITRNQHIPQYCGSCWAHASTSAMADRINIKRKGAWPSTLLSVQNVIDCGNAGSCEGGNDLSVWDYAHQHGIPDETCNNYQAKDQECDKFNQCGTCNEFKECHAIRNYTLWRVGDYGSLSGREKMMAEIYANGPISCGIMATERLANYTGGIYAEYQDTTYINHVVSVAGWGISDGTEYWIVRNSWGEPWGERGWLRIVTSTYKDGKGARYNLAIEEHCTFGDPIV
# UniProt P08574: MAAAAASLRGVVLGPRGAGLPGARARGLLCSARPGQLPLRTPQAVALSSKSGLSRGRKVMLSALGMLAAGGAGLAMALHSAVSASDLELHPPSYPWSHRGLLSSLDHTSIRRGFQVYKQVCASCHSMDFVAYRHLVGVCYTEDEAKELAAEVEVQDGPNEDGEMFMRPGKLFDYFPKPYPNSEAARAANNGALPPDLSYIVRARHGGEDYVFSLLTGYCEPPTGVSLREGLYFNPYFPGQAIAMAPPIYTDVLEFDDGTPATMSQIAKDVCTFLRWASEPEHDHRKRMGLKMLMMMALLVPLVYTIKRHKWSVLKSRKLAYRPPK
# UniProt P19784, whole entry, looked up: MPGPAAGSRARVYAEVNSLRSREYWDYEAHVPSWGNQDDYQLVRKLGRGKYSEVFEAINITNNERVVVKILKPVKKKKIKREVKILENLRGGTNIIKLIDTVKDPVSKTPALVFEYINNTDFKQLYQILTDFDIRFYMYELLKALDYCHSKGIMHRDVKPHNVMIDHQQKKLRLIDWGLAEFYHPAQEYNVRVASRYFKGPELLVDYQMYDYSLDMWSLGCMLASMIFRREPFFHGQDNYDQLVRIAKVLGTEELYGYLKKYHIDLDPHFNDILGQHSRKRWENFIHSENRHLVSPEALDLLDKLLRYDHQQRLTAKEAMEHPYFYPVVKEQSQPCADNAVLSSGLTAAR
# UniProt Q9NTM9: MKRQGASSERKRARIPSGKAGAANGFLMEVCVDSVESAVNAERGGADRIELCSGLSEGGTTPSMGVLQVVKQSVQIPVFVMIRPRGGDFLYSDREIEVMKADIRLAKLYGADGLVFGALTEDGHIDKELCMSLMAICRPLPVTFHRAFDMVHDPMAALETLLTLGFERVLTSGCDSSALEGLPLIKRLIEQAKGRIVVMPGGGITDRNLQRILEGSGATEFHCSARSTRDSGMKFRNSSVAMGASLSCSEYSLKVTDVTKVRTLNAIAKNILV
# UniProt P21291: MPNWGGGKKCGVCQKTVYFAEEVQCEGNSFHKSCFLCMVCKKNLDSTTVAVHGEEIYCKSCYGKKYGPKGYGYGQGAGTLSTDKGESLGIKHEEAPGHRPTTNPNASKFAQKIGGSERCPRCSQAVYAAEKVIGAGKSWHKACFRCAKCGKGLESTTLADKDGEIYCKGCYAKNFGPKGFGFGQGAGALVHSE
# UniProt P49711: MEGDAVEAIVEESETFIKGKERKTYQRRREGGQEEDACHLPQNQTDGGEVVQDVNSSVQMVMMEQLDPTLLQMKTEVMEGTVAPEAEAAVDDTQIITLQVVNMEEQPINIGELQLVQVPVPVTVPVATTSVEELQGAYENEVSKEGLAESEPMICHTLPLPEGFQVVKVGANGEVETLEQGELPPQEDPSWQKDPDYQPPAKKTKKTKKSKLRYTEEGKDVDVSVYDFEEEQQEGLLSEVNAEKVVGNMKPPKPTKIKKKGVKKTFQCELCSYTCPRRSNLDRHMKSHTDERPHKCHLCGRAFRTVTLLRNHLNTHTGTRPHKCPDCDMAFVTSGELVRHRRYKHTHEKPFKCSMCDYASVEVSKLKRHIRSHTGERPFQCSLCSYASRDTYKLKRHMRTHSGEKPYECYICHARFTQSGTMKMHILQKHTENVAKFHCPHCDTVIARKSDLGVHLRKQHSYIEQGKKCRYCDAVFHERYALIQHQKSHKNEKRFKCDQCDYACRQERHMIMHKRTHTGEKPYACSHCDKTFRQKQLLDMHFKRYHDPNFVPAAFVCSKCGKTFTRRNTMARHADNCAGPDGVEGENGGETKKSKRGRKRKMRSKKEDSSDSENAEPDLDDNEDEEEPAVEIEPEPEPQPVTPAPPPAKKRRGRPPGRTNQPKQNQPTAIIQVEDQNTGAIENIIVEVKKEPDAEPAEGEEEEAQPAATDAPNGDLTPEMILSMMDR
# UniProt Q9Y6M4: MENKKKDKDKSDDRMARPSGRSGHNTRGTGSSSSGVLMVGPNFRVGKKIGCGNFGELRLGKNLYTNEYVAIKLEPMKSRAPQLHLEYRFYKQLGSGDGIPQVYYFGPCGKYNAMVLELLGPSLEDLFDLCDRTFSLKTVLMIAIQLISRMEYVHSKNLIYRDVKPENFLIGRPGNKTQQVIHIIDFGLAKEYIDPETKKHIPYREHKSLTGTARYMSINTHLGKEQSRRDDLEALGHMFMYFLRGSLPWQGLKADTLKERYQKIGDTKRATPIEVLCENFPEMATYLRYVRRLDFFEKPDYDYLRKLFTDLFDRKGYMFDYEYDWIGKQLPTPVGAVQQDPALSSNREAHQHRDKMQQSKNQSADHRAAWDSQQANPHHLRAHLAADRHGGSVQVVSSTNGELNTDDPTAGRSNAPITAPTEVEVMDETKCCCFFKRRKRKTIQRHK
# UniProt P78368: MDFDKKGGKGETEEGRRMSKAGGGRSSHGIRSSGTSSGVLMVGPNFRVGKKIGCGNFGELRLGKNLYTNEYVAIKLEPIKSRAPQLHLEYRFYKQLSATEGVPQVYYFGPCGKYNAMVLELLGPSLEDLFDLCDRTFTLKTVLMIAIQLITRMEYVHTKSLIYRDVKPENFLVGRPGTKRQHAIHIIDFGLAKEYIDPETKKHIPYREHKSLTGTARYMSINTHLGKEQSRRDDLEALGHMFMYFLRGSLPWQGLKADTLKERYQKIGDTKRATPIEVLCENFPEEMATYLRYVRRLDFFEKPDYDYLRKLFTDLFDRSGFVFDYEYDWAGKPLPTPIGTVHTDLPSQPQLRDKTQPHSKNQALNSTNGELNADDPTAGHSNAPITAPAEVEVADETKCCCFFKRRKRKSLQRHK
# UniProt P46108: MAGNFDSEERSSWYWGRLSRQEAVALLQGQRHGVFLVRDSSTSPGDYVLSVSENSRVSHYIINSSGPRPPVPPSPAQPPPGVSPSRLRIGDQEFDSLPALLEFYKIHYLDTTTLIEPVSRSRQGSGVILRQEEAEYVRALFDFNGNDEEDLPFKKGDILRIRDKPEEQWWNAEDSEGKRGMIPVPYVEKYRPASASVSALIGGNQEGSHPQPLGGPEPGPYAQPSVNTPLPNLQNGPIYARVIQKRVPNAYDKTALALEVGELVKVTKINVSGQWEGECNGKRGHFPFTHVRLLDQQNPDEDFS
# UniProt Q8WUE5: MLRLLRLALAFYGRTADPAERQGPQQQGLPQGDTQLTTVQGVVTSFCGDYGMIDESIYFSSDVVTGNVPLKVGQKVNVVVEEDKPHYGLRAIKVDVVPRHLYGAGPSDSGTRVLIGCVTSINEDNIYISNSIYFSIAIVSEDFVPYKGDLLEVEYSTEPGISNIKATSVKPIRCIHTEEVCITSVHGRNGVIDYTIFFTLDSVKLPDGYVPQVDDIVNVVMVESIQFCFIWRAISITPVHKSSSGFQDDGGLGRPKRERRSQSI
# UniProt O75390: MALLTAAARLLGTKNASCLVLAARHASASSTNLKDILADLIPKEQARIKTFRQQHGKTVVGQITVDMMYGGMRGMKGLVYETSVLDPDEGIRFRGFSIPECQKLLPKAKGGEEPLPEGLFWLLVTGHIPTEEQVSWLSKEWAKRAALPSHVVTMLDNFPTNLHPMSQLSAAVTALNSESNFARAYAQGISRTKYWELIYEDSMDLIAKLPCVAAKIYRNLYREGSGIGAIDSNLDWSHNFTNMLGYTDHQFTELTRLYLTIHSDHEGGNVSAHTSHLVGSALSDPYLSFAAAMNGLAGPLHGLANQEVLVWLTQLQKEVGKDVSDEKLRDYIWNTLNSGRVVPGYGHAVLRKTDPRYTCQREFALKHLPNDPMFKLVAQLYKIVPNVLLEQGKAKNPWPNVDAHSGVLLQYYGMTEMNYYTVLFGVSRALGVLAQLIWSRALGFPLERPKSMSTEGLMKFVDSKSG
# UniProt Q05048: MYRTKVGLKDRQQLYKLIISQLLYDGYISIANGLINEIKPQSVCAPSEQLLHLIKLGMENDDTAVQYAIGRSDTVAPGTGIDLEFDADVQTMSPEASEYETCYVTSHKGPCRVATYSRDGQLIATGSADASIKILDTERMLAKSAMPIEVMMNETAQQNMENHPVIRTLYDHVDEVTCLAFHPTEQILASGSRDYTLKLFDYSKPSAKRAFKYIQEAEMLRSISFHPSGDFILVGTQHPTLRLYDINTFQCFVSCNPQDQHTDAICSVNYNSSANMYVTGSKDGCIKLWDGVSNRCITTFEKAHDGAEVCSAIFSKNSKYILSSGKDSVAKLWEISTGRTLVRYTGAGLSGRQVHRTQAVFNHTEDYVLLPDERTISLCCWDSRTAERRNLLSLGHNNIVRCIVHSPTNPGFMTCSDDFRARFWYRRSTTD
# UniProt Q9UHQ9: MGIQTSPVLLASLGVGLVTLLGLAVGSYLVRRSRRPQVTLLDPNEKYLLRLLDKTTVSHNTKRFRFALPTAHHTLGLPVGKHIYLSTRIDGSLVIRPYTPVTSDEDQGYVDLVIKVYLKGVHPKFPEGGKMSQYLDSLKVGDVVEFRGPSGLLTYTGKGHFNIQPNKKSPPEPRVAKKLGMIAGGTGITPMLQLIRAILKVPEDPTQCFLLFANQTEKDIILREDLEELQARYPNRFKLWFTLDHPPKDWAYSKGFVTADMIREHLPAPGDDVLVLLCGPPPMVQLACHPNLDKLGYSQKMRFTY
# The other results are listed elsewhere or left out.
# Key:
# Test in all cases: log2 fold change, soluble protein after heating vs DMSO (PISA); higher = thermal stabilisation; K562 lysate, 10 uM; active = over 0.2 and 3.5 SD of the protein, either way, in both replicates (recomputed)
# [1] = compound: CN1CC[C@H](c2c(O)cc(O)c3c(=O)cc(-c4ccccc4Cl)oc23)[C@H](O)C1 [alvocidib]
# How it was run: (§1)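 Values give the log-two fold change in thermal stability against solvent controls, from duplicates. Crude K562 extract at 1 mg/mL protein, made by dounce homogenisation in PBS pH 7.4 with 1 mM MgCl2, was treated with 10 μM compound for 30 min. After 3 min heating across 48°C-58°C, aliquots were pooled, adjusted to 0.5% NP-40 at 4°C and centrifuged at 21,000xg for 90 min. The supernatant was measured by TMTpro 16plex LC-MS/MS with channel sums equalised.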
# [2] = compound: CN1CCc2c(c3ccccc3n2Cc2ccc(C(=O)NO)cc2)C1 [Tubastatin A]
# How it was run: as §1
# [3] = compound: CNC(=O)C1=CC=CC=C1NC2=NC(=NC=C2Cl)NC3=C(C=C(C=C3)N4CCOCC4)OC
# How it was run: as §1
# [4] = compound: CNC(=O)c1ccc(Nc2ncc(C(F)(F)F)c(NCc3nccnc3N(C)S(C)(=O)=O)n2)cc1 [defactinib]
# How it was run: as §1
# [5] = compound: CNc1nc(-c2ccc3c(N)n[nH]c3c2)cc(N2C[C@@H](C(=O)NC3CCCCC3)CC[C@H]2C)n1
# How it was run: as §1
# [6] = compound: COC(=O)N[C@@H](C)CNc1nccc(-c2cn(C(C)C)nc2-c2cc(Cl)cc(NS(C)(=O)=O)c2F)n1 [encorafenib]
# How it was run: as §1
# [7] = compound: COC(=O)[C@H](CCSC)NC(=O)C1=C(C=C(C=C1)NC[C@H](CS)N)C2=CC=CC=C2
# How it was run: as §1
# [8] = compound: COc1cc(Nc2ncc3c(n2)-c2ccc(Cl)cc2C(c2c(F)cccc2OC)=NC3)ccc1C(=O)O [alisertib]
# How it was run: as §1
# [9] = compound: COc1cc2nc(-c3cc(F)ccc3O)nc(N[C@@H]3CNC[C@H]3C(C)(C)O)c2cc1OC
# How it was run: as §1
# [10] = compound: COc1cc2ncnc(Nc3ccc(F)c(Cl)c3)c2cc1OCCCN1CCOCC1 [gefitinib]
# How it was run: as §1
# [11] = compound: CS(=O)(=O)CCNCc1ccc(-c2ccc3ncnc(Nc4ccc(OCc5cccc(F)c5)c(Cl)c4)c3c2)o1 [lapatinib]
# How it was run: as §1
# [12] = compound: CS(=O)(=O)N1CCN(Cc2cc3nc(-c4cccc5[nH]ncc45)nc(N4CCOCC4)c3s2)CC1 [pictilisib]
# How it was run: as §1
# [13] = compound: C[C@@H](Oc1cc(-c2cnn(C3CCNCC3)c2)cnc1N)c1c(Cl)ccc(F)c1Cl [crizotinib]
# How it was run: as §1
# [14] = compound: C[C@H](C1=CC=C(C=C1)C(=O)NC2=C3C=CNC3=NC=C2)N
# How it was run: as §1
# [15] = compound: C[C@H](Nc1ncnc2nc[nH]c12)c1cc2cccc(Cl)c2c(=O)n1-c1ccccc1 [duvelisib]
# How it was run: as §1
# [16] = compound: Cc1cc(Nc2cc(CN3CCOCC3)c3nc(C)c(Cc4ccc(Cl)cc4F)n3n2)n[nH]1 [gandotinib]
# How it was run: as §1
# [17] = compound: Cc1cc(Nc2cc(N3CCN(C)CC3)nc(Sc3ccc(NC(=O)C4CC4)cc3)n2)n[nH]1 [tozasertib]
# How it was run: as §1
# [18] = compound: Cc1ccc(-n2nc(C(C)(C)C)cc2NC(=O)Nc2ccc(OCCN3CCOCC3)c3ccccc23)cc1 [doramapimod]
# How it was run: as §1
# [19] = compound: Cc1ccc(NC(=O)c2ccc(CN3CC[C@H](N(C)C)C3)c(C(F)(F)F)c2)cc1Nc1nccc(-c2cncnc2)n1 [bafetinib]
# How it was run: as §1
# [20] = compound: Cc1cccc(CC(=O)N2CCc3c2ccc(-c2cn(C)c4ncnc(N)c24)c3F)n1
# How it was run: as §1
Target,log2 fold change [1],log2 fold change [2],log2 fold change [3],log2 fold change [4],log2 fold change [5],log2 fold change [6],log2 fold change [7],log2 fold change [8],log2 fold change [9],log2 fold change [10],log2 fold change [11],log2 fold change [12],log2 fold change [13],log2 fold change [14],log2 fold change [15],log2 fold change [16],log2 fold change [17],log2 fold change [18],log2 fold change [19],log2 fold change [20]
CSNK1E (UniProt P49674),inactive: 0.021,inactive: -0.159,inactive: 0.129,inactive: -0.017,inactive: 0.093,inactive: -0.032,inactive: 0.028,inactive: -0.034,inactive: 0.048,inactive: 0.012,inactive: -0.026,inactive: 0.103,inactive: 0.004,inactive: 0.135,inactive: -0.016,inactive: -0.134,inactive: -0.065,inactive: 0.003,inactive: -0.024,inactive: -0.061
CTSH (UniProt P09668),inactive: 0,inactive: 0.069,inactive: 0.013,inactive: 0.042,inactive: 0.025,inactive: -0.003,inactive: -0.021,inactive: -0.029,inactive: -0.004,inactive: 0.005,inactive: 0,inactive: -0.063,inactive: 0.041,inactive: -0.013,inactive: 0.003,inactive: 0.022,inactive: -0.035,inactive: -0.089,inactive: 0.147,inactive: -0.064
CTSZ (UniProt Q9UBR2),inactive: -0.034,inactive: 0.024,inactive: 0.005,inactive: -0.027,inactive: -0.037,inactive: -0.016,inactive: -0.065,inactive: 0,inactive: 0.005,inactive: 0.015,inactive: -0.017,inactive: 0.01,inactive: 0.02,inactive: -0.058,inactive: 0.097,inactive: 0.027,inactive: 0.018,inactive: 0.048,inactive: 0.023,inactive: 0.039
CYC1 (UniProt P08574),inactive: 0.034,inactive: -0.006,inactive: -0.002,inactive: 0.025,inactive: -0.084,inactive: 0.009,inactive: -0.063,inactive: 0.007,inactive: -0.058,inactive: -0.122,inactive: 0.029,inactive: -0.044,inactive: 0.136,inactive: 0.068,inactive: -0.018,inactive: -0.029,inactive: 0.051,inactive: -0.024,inactive: 0.045,inactive: -0.067
CSNK2A2 (UniProt P19784),inactive: 0.101,inactive: -0.059,inactive: 0.321,inactive: 0.172,inactive: -0.022,inactive: -0.047,inactive: 0.012,inactive: 0.078,inactive: 0.135,inactive: 0.004,inactive: -0.116,inactive: 0.057,inactive: -0.071,inactive: 0.099,inactive: -0.02,inactive: -0.1,inactive: -0.035,inactive: -0.015,inactive: 0.009,inactive: -0.041
CUTC (UniProt Q9NTM9),inactive: -0.012,inactive: 0.124,inactive: 0.012,inactive: 0.016,inactive: 0.053,inactive: -0.019,inactive: 0.124,inactive: 0.032,inactive: 0.003,inactive: -0.038,inactive: 0,inactive: -0.002,inactive: 0.034,inactive: -0.028,inactive: 0.016,inactive: 0.009,inactive: 0.016,inactive: 0.001,inactive: -0.003,inactive: 0.031
CSRP1 (UniProt P21291),inactive: -0.1,inactive: 0.08,inactive: 0.041,inactive: 0.025,inactive: 0.084,inactive: -0.048,inactive: -0.062,inactive: 0.007,inactive: 0.005,inactive: -0.037,inactive: -0.007,inactive: -0.013,inactive: 0.006,inactive: -0.124,inactive: -0.044,inactive: 0.023,inactive: -0.002,inactive: -0.04,inactive: -0.013,inactive: 0.037
CTCF (UniProt P49711),inactive: 0.074,inactive: 0.034,inactive: 0.018,inactive: -0.016,inactive: -0.012,inactive: -0.02,inactive: -0.047,inactive: 0.001,inactive: -0.008,inactive: 0.047,inactive: -0.025,inactive: 0.008,inactive: -0.025,inactive: 0.136,inactive: 0.017,inactive: -0.064,inactive: -0.03,inactive: -0.017,inactive: -0.02,inactive: -0.127
CSNK1G3 (UniProt Q9Y6M4),inactive: 0.032,inactive: 0.064,inactive: 0.014,inactive: 0.069,inactive: 0.03,inactive: 0.018,inactive: -0.033,inactive: -0.005,active: 0.459,inactive: -0.005,inactive: -0.155,inactive: 0.118,inactive: 0.026,inactive: 0.214,inactive: -0.042,inactive: -0.032,inactive: -0.048,inactive: -0.003,inactive: -0.09,inactive: -0.021
CSNK1G2 (UniProt P78368),inactive: -0.052,inactive: 0.001,inactive: 0.056,inactive: 0.166,inactive: -0.06,inactive: 0.054,inactive: -0.132,inactive: -0.101,inactive: 0.318,inactive: 0.027,inactive: -0.284,inactive: 0.164,inactive: -0.085,inactive: -0.25,inactive: 0.045,inactive: 0.13,inactive: -0.095,inactive: 0.061,inactive: -0.118,inactive: 0.072
CRK (UniProt P46108),inactive: 0,inactive: 0.06,inactive: 0.005,inactive: -0.014,inactive: 0.013,inactive: 0,inactive: -0.057,inactive: -0.012,inactive: 0.008,inactive: 0.017,inactive: -0.026,inactive: -0.031,inactive: -0.045,inactive: -0.011,inactive: 0.005,inactive: 0.044,inactive: 0.053,inactive: 0.009,inactive: -0.015,inactive: -0.016
CT55 (UniProt Q8WUE5),inactive: -0.008,inactive: 0.006,inactive: -0.22,inactive: 0.039,inactive: 0.01,inactive: 0.142,inactive: -0.048,inactive: -0.025,inactive: 0.016,inactive: 0.072,inactive: 0.09,inactive: 0.019,inactive: -0.159,inactive: -0.145,inactive: 0.111,inactive: 0.023,inactive: 0.025,inactive: 0.164,inactive: -0.132,inactive: 0.111
CS (UniProt O75390),inactive: 0.024,inactive: 0.02,inactive: -0.027,inactive: -0.029,inactive: -0.025,inactive: -0.059,inactive: 0.029,inactive: -0.005,inactive: -0.042,inactive: -0.013,inactive: 0.001,inactive: -0.019,inactive: -0.014,inactive: 0.022,inactive: -0.017,inactive: -0.009,inactive: 0.047,inactive: -0.005,inactive: 0.035,inactive: -0.049
CSTF1 (UniProt Q05048),inactive: 0.008,inactive: -0.01,inactive: 0.006,inactive: -0.008,inactive: -0.064,inactive: 0.021,inactive: -0.079,inactive: 0.031,inactive: 0.004,inactive: 0.022,inactive: -0.011,inactive: -0.002,inactive: -0.002,inactive: -0.033,inactive: 0.004,inactive: 0.023,inactive: 0.005,inactive: -0.039,inactive: -0.02,inactive: -0.022
CYB5R1 (UniProt Q9UHQ9),inactive: 0.041,inactive: 0.062,inactive: -0.043,inactive: 0.021,inactive: -0.035,inactive: -0.022,inactive: 0.149,inactive: -0.018,inactive: 0.137,inactive: 0.061,inactive: 0.009,inactive: -0.071,inactive: -0.008,inactive: 0.036,inactive: 0.031,inactive: -0.073,inactive: -0.046,inactive: -0.022,inactive: 0.117,inactive: 0.036

# Copied from the list.
# Value of CSTF1 (UniProt Q05048) under log2 fold change [19]: inactive: -0.02
# Value of CUTC (UniProt Q9NTM9) under log2 fold change [20]: inactive: 0.031
